The list shows a part of the results.
compound: CC1=C2C(=CC=C1)N=C(N(C2=O)C3=CC=CC=C3C)CN4C=NC5=C(N=CN=C54)N; experiment: log2 fold change, soluble protein after heating vs DMSO (PISA); higher = thermal stabilisation; K562 lysate, 10 uM; active = over 0.2 and 3.5 SD of the protein, either way, in both replicates (recomputed)
Outline: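 The values are log-two fold changes in thermal stability compared with solvent controls and come from duplicates. They were obtained by TMTpro 16plex LC-MS/MS, with channel sums equalised, on the supernatant after 21,000xg for 90 min. That supernatant came from crude K562 extract at 1 mg/mL protein treated with 10 μM compound for 30 min, heated for 3 min across 48°C-58°C, pooled and brought to 0.5% NP-40 at 4°C.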

The chains behind the UniProt entries cited, without tags or fusion partners. Where a name states a change or a piece, a line headed by the entry shows the natural chain unless it says otherwise.
UniProt Q8TCD1: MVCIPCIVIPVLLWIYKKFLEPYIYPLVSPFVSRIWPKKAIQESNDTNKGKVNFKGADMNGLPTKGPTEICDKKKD
UniProt Q7L1Q6: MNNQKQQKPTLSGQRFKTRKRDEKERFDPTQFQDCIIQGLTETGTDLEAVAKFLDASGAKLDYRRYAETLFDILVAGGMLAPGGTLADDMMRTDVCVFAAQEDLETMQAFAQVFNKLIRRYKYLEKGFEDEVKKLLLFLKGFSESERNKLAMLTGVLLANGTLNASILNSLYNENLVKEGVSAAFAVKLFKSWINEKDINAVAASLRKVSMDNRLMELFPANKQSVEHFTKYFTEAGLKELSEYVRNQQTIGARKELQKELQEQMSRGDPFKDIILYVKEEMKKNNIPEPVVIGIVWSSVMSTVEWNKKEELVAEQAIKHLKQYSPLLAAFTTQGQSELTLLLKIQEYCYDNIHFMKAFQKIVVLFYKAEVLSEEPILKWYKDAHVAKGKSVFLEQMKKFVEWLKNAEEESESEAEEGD
UniProt Q9H9S4: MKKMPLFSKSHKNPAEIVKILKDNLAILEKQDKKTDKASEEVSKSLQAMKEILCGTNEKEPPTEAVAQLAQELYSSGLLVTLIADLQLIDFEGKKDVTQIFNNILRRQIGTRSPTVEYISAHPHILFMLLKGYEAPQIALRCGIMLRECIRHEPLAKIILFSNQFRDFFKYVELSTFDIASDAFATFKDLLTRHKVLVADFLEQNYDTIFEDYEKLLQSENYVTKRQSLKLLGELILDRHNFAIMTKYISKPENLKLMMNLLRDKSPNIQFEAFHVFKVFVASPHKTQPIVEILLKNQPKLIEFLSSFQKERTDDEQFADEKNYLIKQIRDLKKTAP
UniProt P17655: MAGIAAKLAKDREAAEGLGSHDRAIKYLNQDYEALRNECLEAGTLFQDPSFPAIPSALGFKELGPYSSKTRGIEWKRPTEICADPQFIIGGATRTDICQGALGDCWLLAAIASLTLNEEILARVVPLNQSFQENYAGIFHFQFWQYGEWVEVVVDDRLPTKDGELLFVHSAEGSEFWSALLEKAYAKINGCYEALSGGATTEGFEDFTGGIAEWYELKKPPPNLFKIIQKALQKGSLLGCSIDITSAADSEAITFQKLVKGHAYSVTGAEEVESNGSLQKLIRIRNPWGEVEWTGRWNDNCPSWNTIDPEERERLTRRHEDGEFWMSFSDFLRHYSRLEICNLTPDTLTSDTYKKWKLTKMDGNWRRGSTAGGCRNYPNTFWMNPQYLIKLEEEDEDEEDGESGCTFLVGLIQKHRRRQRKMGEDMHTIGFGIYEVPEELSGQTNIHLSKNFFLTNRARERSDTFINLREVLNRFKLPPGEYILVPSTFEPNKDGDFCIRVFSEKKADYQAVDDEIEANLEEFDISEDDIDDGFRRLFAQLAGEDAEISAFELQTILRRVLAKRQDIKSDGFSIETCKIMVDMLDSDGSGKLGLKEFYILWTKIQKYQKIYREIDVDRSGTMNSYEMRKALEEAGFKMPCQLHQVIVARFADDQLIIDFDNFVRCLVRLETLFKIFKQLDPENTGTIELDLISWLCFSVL
UniProt Q96N11, whole entry, looked up: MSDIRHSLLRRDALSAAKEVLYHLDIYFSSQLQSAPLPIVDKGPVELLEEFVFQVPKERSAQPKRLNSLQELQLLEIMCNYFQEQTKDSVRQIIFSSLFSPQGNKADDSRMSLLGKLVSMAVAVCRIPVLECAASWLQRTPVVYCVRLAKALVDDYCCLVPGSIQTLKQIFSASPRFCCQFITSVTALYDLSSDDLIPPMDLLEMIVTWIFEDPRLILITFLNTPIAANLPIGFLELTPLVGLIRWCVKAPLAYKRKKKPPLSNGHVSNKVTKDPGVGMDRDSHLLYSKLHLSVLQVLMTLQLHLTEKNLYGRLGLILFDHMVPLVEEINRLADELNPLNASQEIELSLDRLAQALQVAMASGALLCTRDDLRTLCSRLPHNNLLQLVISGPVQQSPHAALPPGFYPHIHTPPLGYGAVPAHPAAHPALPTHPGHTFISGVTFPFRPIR
UniProt Q86VP6: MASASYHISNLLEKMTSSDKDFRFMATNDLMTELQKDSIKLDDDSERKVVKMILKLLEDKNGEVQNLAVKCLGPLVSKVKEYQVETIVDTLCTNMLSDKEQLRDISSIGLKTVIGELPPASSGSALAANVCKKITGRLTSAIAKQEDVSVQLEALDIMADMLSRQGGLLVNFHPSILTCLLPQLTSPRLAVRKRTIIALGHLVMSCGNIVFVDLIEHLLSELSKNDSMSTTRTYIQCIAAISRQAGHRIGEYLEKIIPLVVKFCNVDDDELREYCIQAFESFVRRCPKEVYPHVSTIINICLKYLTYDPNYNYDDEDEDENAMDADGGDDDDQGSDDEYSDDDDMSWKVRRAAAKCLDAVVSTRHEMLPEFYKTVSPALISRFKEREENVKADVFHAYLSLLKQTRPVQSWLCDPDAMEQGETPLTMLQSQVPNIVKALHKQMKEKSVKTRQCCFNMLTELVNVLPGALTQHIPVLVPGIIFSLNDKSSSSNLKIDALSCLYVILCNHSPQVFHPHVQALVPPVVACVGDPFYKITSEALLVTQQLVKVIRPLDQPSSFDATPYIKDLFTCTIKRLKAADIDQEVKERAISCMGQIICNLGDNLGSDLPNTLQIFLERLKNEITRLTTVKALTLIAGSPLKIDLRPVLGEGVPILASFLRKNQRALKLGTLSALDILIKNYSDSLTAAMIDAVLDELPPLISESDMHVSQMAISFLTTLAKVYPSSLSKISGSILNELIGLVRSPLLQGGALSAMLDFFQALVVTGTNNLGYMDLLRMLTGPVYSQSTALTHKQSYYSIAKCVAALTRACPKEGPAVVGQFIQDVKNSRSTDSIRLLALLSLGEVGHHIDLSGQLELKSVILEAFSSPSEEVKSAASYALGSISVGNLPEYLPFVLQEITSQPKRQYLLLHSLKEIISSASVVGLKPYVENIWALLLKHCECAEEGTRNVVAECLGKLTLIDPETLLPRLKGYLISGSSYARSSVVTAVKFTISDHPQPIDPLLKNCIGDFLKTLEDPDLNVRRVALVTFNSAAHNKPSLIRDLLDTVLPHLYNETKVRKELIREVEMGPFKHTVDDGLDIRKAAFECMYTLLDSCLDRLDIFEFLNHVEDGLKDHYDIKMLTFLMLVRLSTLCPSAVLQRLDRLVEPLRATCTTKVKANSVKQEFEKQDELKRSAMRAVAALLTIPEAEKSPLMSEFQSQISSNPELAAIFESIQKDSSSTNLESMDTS
UniProt Q8N8R5: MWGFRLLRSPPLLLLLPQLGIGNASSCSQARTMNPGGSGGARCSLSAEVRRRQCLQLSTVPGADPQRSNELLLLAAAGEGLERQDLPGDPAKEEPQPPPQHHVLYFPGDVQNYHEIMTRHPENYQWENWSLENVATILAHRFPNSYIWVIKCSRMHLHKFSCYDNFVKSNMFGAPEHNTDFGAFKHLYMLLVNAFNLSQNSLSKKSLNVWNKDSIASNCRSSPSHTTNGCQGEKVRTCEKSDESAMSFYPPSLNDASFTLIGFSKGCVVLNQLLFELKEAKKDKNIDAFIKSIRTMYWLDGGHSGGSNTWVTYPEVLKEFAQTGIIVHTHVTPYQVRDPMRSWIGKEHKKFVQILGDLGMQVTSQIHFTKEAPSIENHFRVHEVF
UniProt Q8N999, whole entry, looked up: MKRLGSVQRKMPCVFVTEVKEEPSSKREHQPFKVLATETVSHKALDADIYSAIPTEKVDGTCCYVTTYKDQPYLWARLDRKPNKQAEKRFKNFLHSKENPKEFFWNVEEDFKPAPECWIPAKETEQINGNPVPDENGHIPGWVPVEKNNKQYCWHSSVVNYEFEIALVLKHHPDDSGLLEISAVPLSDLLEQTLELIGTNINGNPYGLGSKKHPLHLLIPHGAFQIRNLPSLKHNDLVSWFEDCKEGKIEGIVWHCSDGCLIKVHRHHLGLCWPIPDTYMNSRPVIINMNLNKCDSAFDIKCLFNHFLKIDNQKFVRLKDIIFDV
UniProt Q07021: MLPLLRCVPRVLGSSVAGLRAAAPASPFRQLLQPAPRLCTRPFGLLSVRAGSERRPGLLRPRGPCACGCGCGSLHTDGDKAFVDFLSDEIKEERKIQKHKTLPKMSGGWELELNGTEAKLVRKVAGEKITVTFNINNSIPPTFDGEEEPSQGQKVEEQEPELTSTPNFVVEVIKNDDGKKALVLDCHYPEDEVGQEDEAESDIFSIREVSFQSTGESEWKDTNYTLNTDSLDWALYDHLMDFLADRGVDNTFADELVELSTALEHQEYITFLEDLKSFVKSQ
UniProt Q6P5X5: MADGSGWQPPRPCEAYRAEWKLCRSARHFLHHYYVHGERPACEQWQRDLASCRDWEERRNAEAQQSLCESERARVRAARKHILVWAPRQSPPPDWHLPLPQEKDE
UniProt Q8N1Q1: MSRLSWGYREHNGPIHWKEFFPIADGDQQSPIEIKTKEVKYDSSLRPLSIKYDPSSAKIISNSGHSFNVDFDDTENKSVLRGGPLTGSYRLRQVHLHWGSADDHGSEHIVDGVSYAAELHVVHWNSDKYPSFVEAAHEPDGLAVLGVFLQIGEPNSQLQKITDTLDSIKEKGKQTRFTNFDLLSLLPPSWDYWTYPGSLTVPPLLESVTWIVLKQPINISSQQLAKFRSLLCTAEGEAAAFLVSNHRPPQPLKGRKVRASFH
UniProt P35219: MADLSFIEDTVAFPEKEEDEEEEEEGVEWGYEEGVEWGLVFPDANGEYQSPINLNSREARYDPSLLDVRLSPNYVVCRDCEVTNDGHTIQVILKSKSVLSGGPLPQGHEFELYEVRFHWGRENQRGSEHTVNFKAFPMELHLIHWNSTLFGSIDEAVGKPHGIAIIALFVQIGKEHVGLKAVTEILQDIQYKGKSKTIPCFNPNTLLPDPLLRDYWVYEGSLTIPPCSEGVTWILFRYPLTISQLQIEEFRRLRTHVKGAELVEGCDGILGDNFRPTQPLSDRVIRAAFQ
UniProt Q5T6V5: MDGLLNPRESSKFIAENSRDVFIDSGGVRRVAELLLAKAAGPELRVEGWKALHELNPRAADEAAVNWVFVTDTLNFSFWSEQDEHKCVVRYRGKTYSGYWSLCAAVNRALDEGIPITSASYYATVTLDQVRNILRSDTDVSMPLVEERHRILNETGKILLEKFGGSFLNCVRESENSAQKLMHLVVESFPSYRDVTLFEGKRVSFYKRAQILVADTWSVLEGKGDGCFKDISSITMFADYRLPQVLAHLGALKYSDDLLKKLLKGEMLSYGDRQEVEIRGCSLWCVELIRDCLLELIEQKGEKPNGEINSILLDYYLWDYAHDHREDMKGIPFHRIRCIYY
UniProt Q9BVC5: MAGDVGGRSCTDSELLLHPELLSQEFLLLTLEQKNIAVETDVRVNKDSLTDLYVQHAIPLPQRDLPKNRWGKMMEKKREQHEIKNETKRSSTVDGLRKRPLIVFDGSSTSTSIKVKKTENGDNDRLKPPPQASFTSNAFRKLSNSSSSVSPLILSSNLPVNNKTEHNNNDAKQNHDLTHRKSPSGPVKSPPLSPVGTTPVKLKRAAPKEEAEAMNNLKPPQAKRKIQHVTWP
UniProt Q6ZSJ8: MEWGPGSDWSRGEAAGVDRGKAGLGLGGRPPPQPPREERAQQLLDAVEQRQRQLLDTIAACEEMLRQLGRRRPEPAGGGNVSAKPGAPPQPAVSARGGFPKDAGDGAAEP
UniProt Q9HB71, whole entry, looked up: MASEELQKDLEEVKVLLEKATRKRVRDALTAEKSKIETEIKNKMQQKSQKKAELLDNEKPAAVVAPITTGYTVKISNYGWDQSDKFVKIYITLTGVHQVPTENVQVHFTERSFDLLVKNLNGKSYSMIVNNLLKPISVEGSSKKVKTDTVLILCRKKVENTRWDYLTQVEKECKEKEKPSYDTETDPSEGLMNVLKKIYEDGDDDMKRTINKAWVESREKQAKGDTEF
UniProt P00915: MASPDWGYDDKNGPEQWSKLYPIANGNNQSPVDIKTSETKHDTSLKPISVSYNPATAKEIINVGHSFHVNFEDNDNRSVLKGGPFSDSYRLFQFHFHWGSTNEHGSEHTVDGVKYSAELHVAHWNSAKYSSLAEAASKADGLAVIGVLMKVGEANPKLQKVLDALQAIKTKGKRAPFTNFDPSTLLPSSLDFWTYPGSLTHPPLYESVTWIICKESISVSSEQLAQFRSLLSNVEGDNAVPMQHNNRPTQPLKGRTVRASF
UniProt Q13895: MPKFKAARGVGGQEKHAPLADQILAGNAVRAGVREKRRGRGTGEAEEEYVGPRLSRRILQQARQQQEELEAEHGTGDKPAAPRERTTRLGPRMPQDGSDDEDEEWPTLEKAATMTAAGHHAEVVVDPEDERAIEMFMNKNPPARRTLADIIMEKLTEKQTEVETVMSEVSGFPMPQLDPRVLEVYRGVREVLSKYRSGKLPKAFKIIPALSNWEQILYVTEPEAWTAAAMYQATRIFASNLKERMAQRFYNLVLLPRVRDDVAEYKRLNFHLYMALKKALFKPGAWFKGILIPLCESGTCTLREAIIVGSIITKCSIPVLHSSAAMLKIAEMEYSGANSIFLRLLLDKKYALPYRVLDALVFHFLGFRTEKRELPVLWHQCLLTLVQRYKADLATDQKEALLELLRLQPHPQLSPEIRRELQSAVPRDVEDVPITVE

Row | Target | log2 fold change
1 | C18orf32 (UniProt Q8TCD1) | inactive: -0.245
2 | C11orf68 isoform 3 (UniProt Q9H3H3) | inactive: 0.008
3 | BZW1 isoform 3 (UniProt Q7L1Q6) | inactive: 0.001
4 | CAB39L (UniProt Q9H9S4) | inactive: 0.053
5 | CAPN2 (UniProt P17655) | inactive: 0.044
6 | C7orf26 (UniProt Q96N11) | inactive: 0.138
7 | CAND1 (UniProt Q86VP6) | inactive: 0.012
8 | C18orf25 isoform 2 (UniProt Q96B23) | inactive: 0.008
9 | C2orf69 (UniProt Q8N8R5) | inactive: 0.02
10 | BTRC (UniProt Q9Y297) | inactive: -0.003
11 | CAPN7 (UniProt Q9Y6W3) | inactive: -0.018
12 | BZW2 (UniProt Q9Y6E2) | inactive: 0.004
13 | CAPZA1 (UniProt P52907) | inactive: -0.008
14 | C5orf22 (UniProt Q49AR2) | inactive: 0.016
15 | C12orf29 (UniProt Q8N999) | inactive: 0.041
16 | C1QBP (UniProt Q07021) | inactive: -0.008

An excerpt of these results, as labelled records.
BZW1 isoform 3 (UniProt Q7L1Q6)
  log2 fold change: inactive: 0.001
C12orf29 (UniProt Q8N999)
  log2 fold change: inactive: 0.041

Later entries.

Row | Target | log2 fold change
17 | C22orf39 (UniProt Q6P5X5) | inactive: -0.138
18 | CA13 (UniProt Q8N1Q1) | inactive: 0.024
19 | C8orf33 isoform 2 (UniProt Q9H7E9) | inactive: -0.017
20 | CA8 (UniProt P35219) | inactive: 0.005
21 | C9orf64 (UniProt Q5T6V5) | inactive: 0.032
22 | C1orf50 (UniProt Q9BV19) | inactive: 0.019
23 | CALM2 (UniProt P0DP24) | inactive: 0.009
24 | C7orf25 isoform 2 (UniProt Q9BPX7) | inactive: 0.336
25 | CAD (UniProt P27708) | inactive: 0.003
26 | C2orf49 (UniProt Q9BVC5) | inactive: -0.008
27 | C1orf122 (UniProt Q6ZSJ8) | inactive: -0.032
28 | CARD11 (UniProt Q9BXL7) | inactive: 0
29 | CACYBP (UniProt Q9HB71) | inactive: -0.027
30 | CA1 (UniProt P00915) | inactive: 0.02
31 | CAMLG (UniProt P49069) | inactive: 0.018
32 | BYSL (UniProt Q13895) | inactive: 0.02
